Assay: TMTcalibrator quantification of regulated proteins in AD CSF versus control
Set-up: species or system human
Details: CSF of AD patient versus control; non-modified peptides of each protein summed for three control and three AD cases

Molecule	Log2 AD/Control
P32754 (protein, UniProt P32754 1-393, looked up, full-length) MTTYSDKGAKPERGRFLHFHSVTFWVGNAKQATSFYCSKMGFEPLAYRGLETGSREVVSHVIKQGKIVFVLSSALNPWNKEMGDHLVKHGDGVKDIAFEVEDCDYIVQKARERGAKIMREPWVEQDKFGKVKFAVLQTYGDTTHTLVEKMNYIGQFLPGYEAPAFMDPLLPKLPKCSLEMIDHIVGNQPDQEMVSASEWYLKNLQFHRFWSVDDTQVHTEYSSLRSIVVANYEESIKMPINEPAPGKKKSQIQEYVDYNGGAGVQHIALKTEDIITAIRHLRERGLEFLSVPSTYYKQLREKLKTAKIKVKENIDALEELKILVDYDEKGYLLQIFTKPVQDRPTLFLEVIQRHNHQGFGAGNFNSLFKAFEEEQNLRGNLTNMETNGVVPGM	0.76
Q8TDQ7 (protein, UniProt Q8TDQ7 1-276, looked up, full-length) MRLVILDNYDLASEWAAKYICNRIIQFKPGQDRYFTLGLPTGSTPLGCYKKLIEYHKNGHLSFKYVKTFNMDEYVGLPRNHPESYHSYMWNNFFKHIDIDPNNAHILDGNAADLQAECDAFENKIKEAGGIDLFVGGIGPDGHIAFNEPGSSLVSRTRLKTLAMDTILANAKYFDGDLSKVPTMALTVGVGTVMDAREVMILITGAHKAFALYKAIEEGVNHMWTVSAFQQHPRTIFVCDEDATLELRVKTVKYFKGLMHVHNKLVDPLFSMKDGN	−0.65
P42261 (protein, UniProt P42261 1-906, looked up, full-length) MQHIFAFFCTGFLGAVVGANFPNNIQIGGLFPNQQSQEHAAFRFALSQLTEPPKLLPQIDIVNISDSFEMTYRFCSQFSKGVYAIFGFYERRTVNMLTSFCGALHVCFITPSFPVDTSNQFVLQLRPELQDALISIIDHYKWQKFVYIYDADRGLSVLQKVLDTAAEKNWQVTAVNILTTTEEGYRMLFQDLEKKKERLVVVDCESERLNAILGQIIKLEKNGIGYHYILANLGFMDIDLNKFKESGANVTGFQLVNYTDTIPAKIMQQWKNSDARDHTRVDWKRPKYTSALTYDGVKVMAEAFQSLRRQRIDISRRGNAGDCLANPAVPWGQGIDIQRALQQVRFEGLTGNVQFNEKGRRTNYTLHVIEMKHDGIRKIGYWNEDDKFVPAATDAQAGGDNSSVQNRTYIVTTILEDPYVMLKKNANQFEGNDRYEGYCVELAAEIAKHVGYSYRLEIVSDGKYGARDPDTKAWNGMVGELVYGRADVAVAPLTITLVREEVIDFSKPFMSLGISIMIKKPQKSKPGVFSFLDPLAYEIWMCIVFAYIGVSVVLFLVSRFSPYEWHSEEFEEGRDQTTSDQSNEFGIFNSLWFSLGAFMQQGCDISPRSLSGRIVGGVWWFFTLIIISSYTANLAAFLTVERMVSPIESAEDLAKQTEIAYGTLEAGSTKEFFRRSKIAVFEKMWTYMKSAEPSVFVRTTEEGMIRVRKSKGKYAYLLESTMNEYIEQRKPCDTMKVGGNLDSKGYGIATPKGSALRNPVNLAVLKLNEQGLLDKLKNKWWYDKGECGSGGGDSKDKTSALSLSNVAGVFYILIGGLGLAMLVALIEFCYKSRSESKRMKGFCLIPQQSINEAIRTSTLPRNSGAGASSGGSGENGRVVSHDFPKSMQSIPCMSHSSGMPLGATGL	1.13
O76003 (protein, UniProt O76003 1-335, looked up, full-length) MAAGAAEAAVAAVEEVGSAGQFEELLRLKAKSLLVVHFWAPWAPQCAQMNEVMAELAKELPQVSFVKLEAEGVPEVSEKYEISSVPTFLFFKNSQKIDRLDGAHAPELTKKVQRHASSGSFLPSANEHLKEDLNLRLKKLTHAAPCMLFMKGTPQEPRCGFSKQMVEILHKHNIQFSSFDIFSDEEVRQGLKAYSSWPTYPQLYVSGELIGGLDIIKELEASEELDTICPKAPKLEERLKVLTNKASVMLFMKGNKQEAKCGFSKQILEILNSTGVEYETFDILEDEEVRQGLKAYSNWPTYPQLYVKGELVGGLDIVKELKENGELLPILRGEN	0.90
P78417 (protein, UniProt P78417 1-241, looked up, full-length) MSGESARSLGKGSAPPGPVPEGSIRIYSMRFCPFAERTRLVLKAKGIRHEVININLKNKPEWFFKKNPFGLVPVLENSQGQLIYESAITCEYLDEAYPGKKLLPDDPYEKACQKMILELFSKVPSLVGSFIRSQNKEDYAGLKEEFRKEFTKLEEVLTNKKTTFFGGNSISMIDYLIWPWFERLEAMKLNECVDHTPKLKLWMAAMKEDPTVSALLTSEKDWQGFLELYLQNSPEACDYGL	1.13
P23434 (protein, UniProt P23434 1-173, looked up, full-length) MALRVVRSVRALLCTLRAVPSPAAPCPPRPWQLGVGAVRTLRTGPALLSVRKFTEKHEWVTTENGIGTVGISNFAQEALGDVVYCSLPEVGTKLNKQDEFGALESVKAASELYSPLSGEVTEINEALAENPGLVNKSCYEDGWLIKMTLSNPSELDELMSEEAYEKYIKSIEE	0.94
Q9Y2T3 (protein, UniProt Q9Y2T3 1-454, looked up, full-length) MCAAQMPPLAHIFRGTFVHSTWTCPMEVLRDHLLGVSDSGKIVFLEEASQQEKLAKEWCFKPCEIRELSHHEFFMPGLVDTHIHASQYSFAGSSIDLPLLEWLTKYTFPAEHRFQNIDFAEEVYTRVVRRTLKNGTTTACYFATIHTDSSLLLADITDKFGQRAFVGKVCMDLNDTFPEYKETTEESIKETERFVSEMLQKNYSRVKPIVTPRFSLSCSETLMGELGNIAKTRDLHIQSHISENRDEVEAVKNLYPSYKNYTSVYDKNNLLTNKTVMAHGCYLSAEELNVFHERGASIAHCPNSNLSLSSGFLNVLEVLKHEVKIGLGTDVAGGYSYSMLDAIRRAVMVSNILLINKVNEKSLTLKEVFRLATLGGSQALGLDGEIGNFEVGKEFDAILINPKASDSPIDLFYGDFFGDISEAVIQKFLYLGDDRNIEEVYVGGKQVVPFSSSV	0.75
P00738 (protein, UniProt P00738 1-406, looked up, full-length) MSALGAVIALLLWGQLFAVDSGNDVTDIADDGCPKPPEIAHGYVEHSVRYQCKNYYKLRTEGDGVYTLNDKKQWINKAVGDKLPECEADDGCPKPPEIAHGYVEHSVRYQCKNYYKLRTEGDGVYTLNNEKQWINKAVGDKLPECEAVCGKPKNPANPVQRILGGHLDAKGSFPWQAKMVSHHNLTTGATLINEQWLLTTAKNLFLNHSENATAKDIAPTLTLYVGKKQLVEIEKVVLHPNYSQVDIGLIKLKQKVSVNERVMPICLPSKDYAEVGRVGYVSGWGRNANFKFTDHLKYVMLPVADQDQCIRHYEGSTVPEKKTPKSPVGVQPILNEHTFCAGMSKYQEDTCYGDAGSAFAVHDLEEDTWYATGILSFDKSCAVAEYGVYVKVTSIQDWVQKTIAEN	−1.07
P00739 (protein, UniProt P00739 1-348, looked up, full-length) MSDLGAVISLLLWGRQLFALYSGNDVTDISDDRFPKPPEIANGYVEHLFRYQCKNYYRLRTEGDGVYTLNDKKQWINKAVGDKLPECEAVCGKPKNPANPVQRILGGHLDAKGSFPWQAKMVSHHNLTTGATLINEQWLLTTAKNLFLNHSENATAKDIAPTLTLYVGKKQLVEIEKVVLHPNYHQVDIGLIKLKQKVLVNERVMPICLPSKNYAEVGRVGYVSGWGQSDNFKLTDHLKYVMLPVADQYDCITHYEGSTCPKWKAPKSPVGVQPILNEHTFCVGMSKYQEDTCYGDAGSAFAVHDLEEDTWYAAGILSFDKSCAVAEYGVYVKVTSIQHWVQKTIAEN	−1.65
Q8IZP0 (protein, UniProt Q8IZP0 1-508, looked up, full-length) MAELQMLLEEEIPSGKRALIESYQNLTRVADYCENNYIQATDKRKALEETKAYTTQSLASVAYQINALANNVLQLLDIQASQLRRMESSINHISQTVDIHKEKVARREIGILTTNKNTSRTHKIIAPANMERPVRYIRKPIDYTVLDDVGHGVKWLKAKHGNNQPARTGTLSRTNPPTQKPPSPPMSGRGTLGRNTPYKTLEPVKPPTVPNDYMTSPARLGSQHSPGRTASLNQRPRTHSGSSGGSGSRENSGSSSIGIPIAVPTPSPPTIGPENISVPPPSGAPPAPPLAPLLPVSTVIAAPGSAPGSQYGTMTRQISRHNSTTSSTSSGGYRRTPSVTAQFSAQPHVNGGPLYSQNSISIAPPPPPMPQLTPQIPLTGFVARVQENIADSPTPPPPPPPDDIPMFDDSPPPPPPPPVDYEDEEAAVVQYNDPYADGDPAWAPKNYIEKVVAIYDYTKDKDDELSFMEGAIIYVIKKNDDGWYEGVCNRVTGLFPGNYVESIMHYTD	1.04
Q6ZVN8 (protein, UniProt Q6ZVN8 1-426, looked up, full-length) MGEPGQSPSPRSSHGSPPTLSTLTLLLLLCGHAHSQCKILRCNAEYVSSTLSLRGGGSSGALRGGGGGGRGGGVGSGGLCRALRSYALCTRRTARTCRGDLAFHSAVHGIEDLMIQHNCSRQGPTAPPPPRGPALPGAGSGLPAPDPCDYEGRFSRLHGRPPGFLHCASFGDPHVRSFHHHFHTCRVQGAWPLLDNDFLFVQATSSPMALGANATATRKLTIIFKNMQECIDQKVYQAEVDNLPVAFEDGSINGGDRPGGSSLSIQTANPGNHVEIQAAYIGTTIIIRQTAGQLSFSIKVAEDVAMAFSAEQDLQLCVGGCPPSQRLSRSERNRRGAITIDTARRLCKEGLPVEDAYFHSCVFDVLISGDPNFTVAAQAALEDARAFLPDLEKLHLFPSDAGVPLSSATLLAPLLSGLFVLWLCIQ	0.87
Q8IZP7 (protein, UniProt Q8IZP7 1-471, looked up, full-length) MDERFNKWLLTPVLTLLFVVIMYQYVSPSCTSSCTNFGEQPRAGEAGPPAVPGPARRAQAPPEEWERRPQLPPPPRGPPEGPRGAAAPEEEDEEPGDPREGEEEEEEDEPDPEAPENGSLPRFVPRFNFSLKDLTRFVDFNIKGRDVIVFLHIQKTGGTTFGRHLVKNIRLEQPCSCKAGQKKCTCHRPGKKETWLFSRFSTGWSCGLHADWTELTNCVPAIMEKKDCPRNHSHTRNFYYITMLRDPVSRYLSEWKHVQRGATWKTSLHMCDGRSPTPDELPTCYPGDDWSGVSLREFMDCTYNLANNRQVRMLADLSLVGCYNLTFMNESERNTILLQSAKNNLKNMAFFGLTEFQRKTQFLFERTFNLKFISPFTQFNITRASNVEINEGARQRIEDLNFLDMQLYEYAKDLFQQRYHHTKQLEHQRDRQKRREERRLQREHRDHQWPKEDGAAEGTVTEDYNSQVVRW	0.78
P05546 (protein, UniProt P05546 1-499, looked up, full-length) MKHSLNALLIFLIITSAWGGSKGPLDQLEKGGETAQSADPQWEQLNNKNLSMPLLPADFHKENTVTNDWIPEGEEDDDYLDLEKIFSEDDDYIDIVDSLSVSPTDSDVSAGNILQLFHGKSRIQRLNILNAKFAFNLYRVLKDQVNTFDNIFIAPVGISTAMGMISLGLKGETHEQVHSILHFKDFVNASSKYEITTIHNLFRKLTHRLFRRNFGYTLRSVNDLYIQKQFPILLDFKTKVREYYFAEAQIADFSDPAFISKTNNHIMKLTKGLIKDALENIDPATQMMILNCIYFKGSWVNKFPVEMTHNHNFRLNEREVVKVSMMQTKGNFLAANDQELDCDILQLEYVGGISMLIVVPHKMSGMKTLEAQLTPRVVERWQKSMTNRTREVLLPKFKLEKNYNLVESLKLMGIRMLFDKNGNMAGISDQRIAIDLFKHQGTITVNEEGTQATTVTTVGFMPLSTQVRFTVDRPFLFLIYEHRTSCLLFMGRVANPSRS	−0.66
